The target of assay [1] is NF-κB p65 (mouse (endogenous in primary astrocytes and hippocampal tissue)) (UniProt Q04207). In words: co-IP; IP followed by WB with hippocampal tissues of Ctrl and Ogt cKO mice, and of Ctrl and AD (5XFAD) mice.
The target is the same in assay [2]. Description: co-IP; endogenous reciprocal IP-WB in cultured primary mouse astrocytes; cells crosslinked with 1% formaldehyde for 10 min, lysed with IP Lysis Buffer (50 mM Tris-HCl, 0.5% Triton-X, 150 mM KCl, 1 mM EDTA); Protein A agarose beads, 4 °C.

Sequences of proteins named here, by UniProt entry; tags and fusion partners are left off.
UniProt Q04207: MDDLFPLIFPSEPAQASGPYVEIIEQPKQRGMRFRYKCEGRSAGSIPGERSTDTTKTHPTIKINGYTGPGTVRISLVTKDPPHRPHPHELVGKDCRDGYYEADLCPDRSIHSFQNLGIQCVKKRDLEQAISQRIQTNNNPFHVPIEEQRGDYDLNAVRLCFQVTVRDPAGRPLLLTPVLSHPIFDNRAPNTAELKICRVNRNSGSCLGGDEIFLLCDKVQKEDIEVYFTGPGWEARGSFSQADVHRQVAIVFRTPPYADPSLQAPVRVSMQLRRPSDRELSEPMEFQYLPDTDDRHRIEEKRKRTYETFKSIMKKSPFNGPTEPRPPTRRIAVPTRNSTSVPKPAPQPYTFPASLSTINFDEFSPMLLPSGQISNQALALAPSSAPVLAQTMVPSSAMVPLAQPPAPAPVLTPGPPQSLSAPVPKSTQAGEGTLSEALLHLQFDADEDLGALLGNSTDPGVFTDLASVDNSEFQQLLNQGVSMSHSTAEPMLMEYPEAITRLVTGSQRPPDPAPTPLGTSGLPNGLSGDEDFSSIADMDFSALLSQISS

These results are taken from paper PMC10286367.

Results are given in words; binding and its absence hold for the method and conditions named. Binding seen in cells or lysates may run through a third protein. Some results given as binding are weak or reduced against the parent protein; the word gives no strength.

B1: O-GlcNAc transferase (Ogt) (enzyme, UniProt Q8CGY8 1-1046)
chain: MASSVGNVADSTEPTKRMLSFQGLAELAHREYQAGDFEAAERHCMQLWRQEPDNTGVLLLLSSIHFQCRRLDRSAHFSTLAIKQNPLLAEAYSNLGNVYKERGQLQEAIEHYRHALRLKPDFIDGYINLAAALVAAGDMEGAVQAYVSALQYNPDLYCVRSDLGNLLKALGRLEEAKACYLKAIETQPNFAVAWSNLGCVFNAQGEIWLAIHHFEKAVTLDPNFLDAYINLGNVLKEARIFDRAVAAYLRALSLSPNHAVVHGNLACVYYEQGLIDLAIDTYRRAIELQPHFPDAYCNLANALKEKGSVAEAEDCYNTALRLCPTHADSLNNLANIKREQGNIEEAVRLYRKALEVFPEFAAAHSNLASVLQQQGKLQEALMHYKEAIRISPTFADAYSNMGNTLKEMQDVQGALQCYTRAIQINPAFADAHSNLASIHKDSGNIPEAIASYRTALKLKPDFPDAYCNLAHCLQIVCDWTDYDERMKKLVSIVAEQLEKNRLPSVHPHHSMLYPLSHGFRKAIAERHGNLCLDKINVLHKPPYEHPKDLKLSDGRLRVGYVSSDFGNHPTSHLMQSIPGMHNPDKFEVFCYALSPDDGTNFRVKVMAEANHFIDLSQIPCNGKAADRIHQDGIHILVNMNGYTKGARNELFALRPAPIQAMWLGYPGTSGALFMDYIITDQETSPAEVAEQYSEKLAYMPHTFFIGDHANMFPHLKKKAVIDFKSNGHIYDNRIVLNGIDLKAFLDSLPDVKIVKMKCPDGGDNPDSSNTALNMPVIPMNTIAEAVIEMINRGQIQITINGFSISNGLATTQINNKAATGEEVPRTIIVTTRSQYGLPEDAIVYCNFNQLYKIDPSTLQMWANILKRVPNSVLWLLRFPAVGEPNIQQYAQNMGLPQNRIIFSPVAPKEEHVRRGQLADVCLDTPLCNGHTTGMDVLWAGTPMVTMPGETLASRVAASQLTCLGCLELIAKSRQEYEDIAVKLGTDLEYLKKIRGKVWKQRISSPLFNTKQYTMELERLYLQMWEHYAAGNKPDHMIKPVEVTESA
Regarding B1, the binding result in assay [1] and in assay [2] was “binds” in each case.
